According to article PMC7819943, “Rice protein-binding microarrays: a tool to detect cis-acting elements near promoter regions in rice”:
This is one part of the list.

The chains behind the UniProt entries cited, without tags or fusion partners.
UniProt Q0JBA9, entry or part of it: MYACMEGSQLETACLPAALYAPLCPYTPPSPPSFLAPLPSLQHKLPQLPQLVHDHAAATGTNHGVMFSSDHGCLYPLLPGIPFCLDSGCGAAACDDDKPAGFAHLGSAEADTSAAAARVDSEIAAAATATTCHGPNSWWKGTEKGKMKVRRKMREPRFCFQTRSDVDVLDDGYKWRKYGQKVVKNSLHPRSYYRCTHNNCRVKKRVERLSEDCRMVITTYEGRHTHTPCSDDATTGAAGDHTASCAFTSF

target: OsWRKY34 (Oryza sativa, UniProt Q0JBA9 1-250); assay: protein-binding microarray (RPBM); PBS, 2% BSA, 51.3 ng/ul salmon testes DNA, 50 uM zinc acetate, 200 nM TF, 25 C, 1 h; high values mean tight binding; details: protein: recombinant; tags: N-terminal polyhistidine and DsRed monomer fusion (pET32a); label: CyDye5-dUTP incorporated in the synthesized complementary strand; 3' TTTTT single-stranded linker to array surface; dsDNA, one strand shown
Procedure, shortened: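 Using Ni–NTA, transcription factors fused N-terminally to polyhistidine and DsRed were purified after expression in E. coli BL21-CodonPlus. These were incubated at 200 nM with a blocked, double-stranded custom Agilent array for 1 h at 25 °C in a buffer containing 50 µM zinc acetate, and the array was washed. The binding signal is per-feature fluorescence intensity (arbitrary units) on an Axon 4000B scanner.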

Sequence	binding signal
TCTCCAGCCGCTCACCGCTGTCTCTCTCCCTCCTCACAACCGGAGTCACCTAGTGCAG	8390 fluorescence intensity (a.u.)
TCCACCCCAGCCGTCGACGCCGCCGTCACCCACCCGCAACCGGAGTCACCTAGTGCAG	9110 fluorescence intensity (a.u.)
AACCCTATCGCCGCCCCATTCGCCTGCTCGAGACCACCAACGGAGTCACCTAGTGCAG	10900 fluorescence intensity (a.u.)
AAATAAAGCAATGGAAGTAAAGTCAACAGGGAGGGTAAAACGGAGTCACCTAGTGCAG	8290 fluorescence intensity (a.u.)
CCTTTGCTCCTGCTGCTGCTTTGTTGCTTGCTTCCCTACACGGAGTCACCTAGTGCAG	11400 fluorescence intensity (a.u.)
GATTACCCTGTTGCATTGTTATACTAATTATACGGTCACACGGAGTCACCTAGTGCAG	8370 fluorescence intensity (a.u.)
TATGGGTCCAAGAGTTTAGGTGTAGGGTCTTCTCTCTTTTCGGAGTCACCTAGTGCAG	9320 fluorescence intensity (a.u.)
AGTTCAGGGACCTTTGGTGTACTTTTTCCTTATTGTTAATCGGAGTCACCTAGTGCAG	9130 fluorescence intensity (a.u.)
GATCTCCTCGACCTGCTATGCTCATCCCGTCGAAAAGTTCCGGAGTCACCTAGTGCAG	9010 fluorescence intensity (a.u.)
ACTACTACTCCTCCTATATCACTGGTTCTTTCTTGCAAAGCGGAGTCACCTAGTGCAG	8900 fluorescence intensity (a.u.)
AATGACACACAACAAGTTACTATTATCACTGTAGCACGAACGGAGTCACCTAGTGCAG	10200 fluorescence intensity (a.u.)
ATGGAGTATATGTGTTTTGTAGATTGCAACTTAGAAATGGCGGAGTCACCTAGTGCAG	8680 fluorescence intensity (a.u.)
GTCATCCTGTTTCACTGCTAGCTCTCCCTAAATTTTGAAACGGAGTCACCTAGTGCAG	8490 fluorescence intensity (a.u.)
TAATCGATCTGCTCCTGTACTCATGTGGTAGGTTATTCTACGGAGTCACCTAGTGCAG	8710 fluorescence intensity (a.u.)
AGTTGCAGTGTTTCCCTATCAAGTATCAATCGCGAGCTGCCGGAGTCACCTAGTGCAG	8810 fluorescence intensity (a.u.)
ACCACGATGTGTCACCCCACCCCACCACCGCCCGCTGCTCCGGAGTCACCTAGTGCAG	9690 fluorescence intensity (a.u.)
CGGTTATCTTTTGCCATAATTACTTTTTGTAAAACCAACTCGGAGTCACCTAGTGCAG	9840 fluorescence intensity (a.u.)
TTCTTCCCACCTTCCTATTTACACATTCAATTTTATTCATCGGAGTCACCTAGTGCAG	8250 fluorescence intensity (a.u.)
ATCCAAGTTTATAATACATCATTTTCTACATTATTTCATCCGGAGTCACCTAGTGCAG	9060 fluorescence intensity (a.u.)
GCGCTTCGATTTGGTTTGGTTTGATTCGGTTTGCGAGATGCGGAGTCACCTAGTGCAG	8780 fluorescence intensity (a.u.)
ACCATATGTTTTTTCATCTAAGGCCTTGTTTAGATTTAAACGGAGTCACCTAGTGCAG	9290 fluorescence intensity (a.u.)
CTGGATTGTCCCCAAATCCCTTCGTACACTTTCTCCAGCCCGGAGTCACCTAGTGCAG	9330 fluorescence intensity (a.u.)
AAAATTATTTTATTTCCTTCTCACTAGGTGTTGTTCTTTTCGGAGTCACCTAGTGCAG	8680 fluorescence intensity (a.u.)
CCGTGATCCTGCTGCCGTCGTCCACCGCCACGCTCTCTCCCGGAGTCACCTAGTGCAG	8150 fluorescence intensity (a.u.)
CTCCGTCTTGTGTGTTTGTTCGTTTGGACGGTTAGTGCGTCGGAGTCACCTAGTGCAG	10300 fluorescence intensity (a.u.)
TTTGTTATTCCCACGATGTTATTTGTTCAGTTCTTGCTATCGGAGTCACCTAGTGCAG	8900 fluorescence intensity (a.u.)
ACCTCCATGTTGGTAATGTGACATGTCCTTCTACATATGCCGGAGTCACCTAGTGCAG	11500 fluorescence intensity (a.u.)

3 records drawn at random from those above, as already listed:
Sequence	binding signal
TCCACCCCAGCCGTCGACGCCGCCGTCACCCACCCGCAACCGGAGTCACCTAGTGCAG	9110 fluorescence intensity (a.u.)
AATGACACACAACAAGTTACTATTATCACTGTAGCACGAACGGAGTCACCTAGTGCAG	10200 fluorescence intensity (a.u.)
GCGCTTCGATTTGGTTTGGTTTGATTCGGTTTGCGAGATGCGGAGTCACCTAGTGCAG	8780 fluorescence intensity (a.u.)

Continuation:

Sequence	binding signal
ATTGTGGTTCAGACTTAGAAGACCTTTTACCTTTATTGTTCGGAGTCACCTAGTGCAG	9600 fluorescence intensity (a.u.)
ACCCTCACTCCCACTCACAAACACACACAATTTAGCTTAGCGGAGTCACCTAGTGCAG	8580 fluorescence intensity (a.u.)
TGTCACATTCGTTTTACTCTCTCCGGACACATCTCTTTCTCGGAGTCACCTAGTGCAG	14500 fluorescence intensity (a.u.)
CCGTCTCCTCGCTTTCCGCCGGCGCCGATCTCCATCCTACCGGAGTCACCTAGTGCAG	10900 fluorescence intensity (a.u.)
GTAGCCGATGTTTGTGTCTTGAAGCTTCGTACTTCCACTCCGGAGTCACCTAGTGCAG	8030 fluorescence intensity (a.u.)
CTCTTTTCCGTTTTCTTTTCAGGGCGCCGCCTCCTCTTCTCGGAGTCACCTAGTGCAG	8930 fluorescence intensity (a.u.)
ATTTTGCTCCGATTGGTGCCTTTTTCTCCTGGAATTTTGTCGGAGTCACCTAGTGCAG	9460 fluorescence intensity (a.u.)
ATGGGAGGGCAAGAAAACTAGTAAGGGGCATGGAAAGTCTCGGAGTCACCTAGTGCAG	8620 fluorescence intensity (a.u.)
GCTCTCAGCTCGATCGATCGGTTGCTACAAATACCAGCCTCGGAGTCACCTAGTGCAG	8260 fluorescence intensity (a.u.)
AAAAATCTCCGTATCAACTTATCCGTATTGCCCTACCAGTCGGAGTCACCTAGTGCAG	8740 fluorescence intensity (a.u.)
CAATCTGTCGCTCTCCCGCTCCTTAATTAATTAATTAATTCGGAGTCACCTAGTGCAG	9600 fluorescence intensity (a.u.)
AATCTCCTAGGCTGTGTTTAGATCTAAACTTCCAACTTTTCGGAGTCACCTAGTGCAG	8750 fluorescence intensity (a.u.)
ACCTGGTTATTTTTTTTGTCAGTCTGGTTGTGTGGTGCAGCGGAGTCACCTAGTGCAG	8340 fluorescence intensity (a.u.)
CGGCCGCCGCCTCGTCGTCGATGAGCTCGCCATGGCGCCCCGGAGTCACCTAGTGCAG	8840 fluorescence intensity (a.u.)
GTCACTCCACTTTTCCCCACCGCCATCCACTCCCACCTCGCGGAGTCACCTAGTGCAG	8510 fluorescence intensity (a.u.)
GGCGGGAGCGGGGCGGCACTGACGCACTGTTCGATTACACCGGAGTCACCTAGTGCAG	8190 fluorescence intensity (a.u.)
GCGACAGGAACCGGCCACTCATGTACATACTACTCCAAGCCGGAGTCACCTAGTGCAG	8520 fluorescence intensity (a.u.)
GCCGAGACCTTTGCTTAGACGGCGGTTTTCCCAGCTACCTCGGAGTCACCTAGTGCAG	9320 fluorescence intensity (a.u.)
CAAACCCCACACACACAGCATCCGATATATATCTCGATCCCGGAGTCACCTAGTGCAG	8410 fluorescence intensity (a.u.)
TGTAGCGTTGGTTTCCACCCTTTTAAACATGCGTTAGATTCGGAGTCACCTAGTGCAG	8730 fluorescence intensity (a.u.)
TTCATTTTGTCCCTTTGCTCATCGTCCTGTCGGTATCCGTCGGAGTCACCTAGTGCAG	8940 fluorescence intensity (a.u.)
AGCTACGCTACGGCCCCACCCAACTGCTCTTCCTACGCGCCGGAGTCACCTAGTGCAG	8740 fluorescence intensity (a.u.)
TCCGTCTCCATCTCCTACCTCGGGCCCTGAGCACATCCCCCGGAGTCACCTAGTGCAG	8920 fluorescence intensity (a.u.)
CTTACCTGCACCAAATCGGACTGTCCAAGGTCCACAAGCTCGGAGTCACCTAGTGCAG	9350 fluorescence intensity (a.u.)
TACTACTGCTTTACAAGTTTGCTATTCTACAGTTTTCTTACGGAGTCACCTAGTGCAG	9950 fluorescence intensity (a.u.)
TGTCCGTCTCGCGCGCCGGCTGCCGCTGCACTTGCCCATGCGGAGTCACCTAGTGCAG	8140 fluorescence intensity (a.u.)
TAGATTTGACTATATTTTTTCTATCATCTCTTTCTCTAACCGGAGTCACCTAGTGCAG	8830 fluorescence intensity (a.u.)
